Laboratory results taken from PMC13039736.
No constants are given. Whether binding was seen depends on the method and setting. In cells and extracts the contact can be indirect. Some binding calls cover weakened binding; strength is not graded here. For some assays here: Tags and fused reporters may be left off the sequences shown.

Chains of the proteins cited; added tags and fusions are not shown. Lines headed by an entry give the natural chain unless they say otherwise; changes in a name come on top. Residues count along the entry.
UniProt Q9UNI6: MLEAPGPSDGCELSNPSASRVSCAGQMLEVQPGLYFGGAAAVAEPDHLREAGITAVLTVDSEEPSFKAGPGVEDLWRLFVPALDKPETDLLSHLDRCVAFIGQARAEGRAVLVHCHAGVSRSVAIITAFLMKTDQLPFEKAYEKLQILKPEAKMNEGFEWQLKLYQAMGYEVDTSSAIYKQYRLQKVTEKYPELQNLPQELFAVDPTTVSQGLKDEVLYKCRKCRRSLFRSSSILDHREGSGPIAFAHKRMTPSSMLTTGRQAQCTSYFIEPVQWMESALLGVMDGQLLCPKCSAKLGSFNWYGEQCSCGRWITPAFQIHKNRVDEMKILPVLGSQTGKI
LAP-DUSP12 C-terminus truncation (amino acids 169-340): residues 169-340 of Q9UNI6

What was measured:
[1] = molecular target: HA-DUSP12 C-terminus truncation (amino acids 169-340) (UniProt Q9UNI6); test: co-IP; in vitro binding assay: HA-tagged DUSP12 forms and FLAG-ZNF622 expressed by coupled in vitro transcription/translation, incubated together with anti-HA magnetic beads 1.5 h at 4 C, washed with LAP200 buffer (200 mM KCl, 0.05% NP-40, 0.5 mM DTT); immunoblot
HA-DUSP12-C115A = HA-DUSP12-C115A (UniProt Q9UNI6); test: as above
HA-DUSP12-R121A = HA-DUSP12-R121A (UniProt Q9UNI6); test: as above
[2] = molecular target: HA-DUSP12-WT (full length) (UniProt Q9UNI6); test: as above
[3] = molecular target: LAP-DUSP12 C-terminus truncation (amino acids 169-340) (UniProt Q9UNI6); test: co-IP; LAP-tagged induced HeLa stable cell lines (asynchronous or Taxol-arrested) lysed, incubated with S-protein Agarose 2 h at 4 C, washed with LAP100 buffer (100 mM KCl, 0.05% NP-40, 0.5 mM DTT); immunoblot for ZNF622
LAP-DUSP12-C115A = LAP-DUSP12-C115A (UniProt Q9UNI6); test: as above
LAP-DUSP12-R121A = LAP-DUSP12-R121A (UniProt Q9UNI6); test: as above
[4] = molecular target: LAP-DUSP12-WT (full length) (UniProt Q9UNI6); test: as above

Measured: binding

B1: FLAG-ZNF622 (protein, UniProt Q969S3 1-477)
chain: MATYTCITCRVAFRDADMQRAHYKTDWHRYNLRRKVASMAPVTAEGFQERVRAQRAVAEEESKGSATYCTVCSKKFASFNAYENHLKSRRHVELEKKAVQAVNRKVEMMNEKNLEKGLGVDSVDKDAMNAAIQQAIKAQPSMSPKKAPPAPAKEARNVVAVGTGGRGTHDRDPSEKPPRLQWFEQQAKKLAKQQEEDSEEEEEDLDGDDWEDIDSDEELECEDTEAMDDVVEQDAEEEEAEEGPPLGAIPITDCLFCSHHSSSLMKNVAHMTKDHSFFIPDIEYLSDIKGLIKYLGEKVGVGKICLWCNEKGKSFYSTEAVQAHMNDKSHCKLFTDGDAALEFADFYDFRSSYPDHKEGEDPNKAEELPSEKNLEYDDETMELILPSGARVGHRSLMRYYKQRFGLSRAVAVAKNRKAVGRVLQQYRALGWTGSTGAALMRERDMQYVQRMKSKWMLKTGMKNNATKQMHFRVQVRF
binds: [1] | HA-DUSP12-C115A | HA-DUSP12-R121A | [2]

B2: zinc finger protein 622 (ZNF622), endogenous (protein, UniProt Q969S3 1-477)
chain: MATYTCITCRVAFRDADMQRAHYKTDWHRYNLRRKVASMAPVTAEGFQERVRAQRAVAEEESKGSATYCTVCSKKFASFNAYENHLKSRRHVELEKKAVQAVNRKVEMMNEKNLEKGLGVDSVDKDAMNAAIQQAIKAQPSMSPKKAPPAPAKEARNVVAVGTGGRGTHDRDPSEKPPRLQWFEQQAKKLAKQQEEDSEEEEEDLDGDDWEDIDSDEELECEDTEAMDDVVEQDAEEEEAEEGPPLGAIPITDCLFCSHHSSSLMKNVAHMTKDHSFFIPDIEYLSDIKGLIKYLGEKVGVGKICLWCNEKGKSFYSTEAVQAHMNDKSHCKLFTDGDAALEFADFYDFRSSYPDHKEGEDPNKAEELPSEKNLEYDDETMELILPSGARVGHRSLMRYYKQRFGLSRAVAVAKNRKAVGRVLQQYRALGWTGSTGAALMRERDMQYVQRMKSKWMLKTGMKNNATKQMHFRVQVRF
binds: [3] | LAP-DUSP12-C115A | LAP-DUSP12-R121A | [4]
